Targets include NOD2 CARD (1+2) (human) (UniProt Q9HC29); NOD2 CARD (2) (human) (UniProt Q9HC29); NOD2 CARD (1) (human) (UniProt Q9HC29).
Test in all cases: two-hybrid; … GAL4 Two-Hybrid System 3, S. cerevisiae AH109 co-transformed with pGBKT7 and pGADT7 fusions; growth on SD/-Ade/-His/-Leu/-Trp, 4 days at 30°C; “each against all” screen (26×26) and later tests with refined constructs
For assay [1], the target named is T1, NOD1 CARD (1–110) (UniProt Q9Y239).
T1 sequence: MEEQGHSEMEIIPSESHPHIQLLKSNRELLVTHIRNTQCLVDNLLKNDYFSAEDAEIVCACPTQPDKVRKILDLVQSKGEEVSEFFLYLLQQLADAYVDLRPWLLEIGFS

The chains behind the UniProt entries cited, without tags or fusion partners. Where a name states a change or a piece, a line headed by the entry shows the natural chain unless it says otherwise. A line that says so, or that is headed by a name, gives the form on record, which may keep a tag or linker. Residues count along the entry.
NOD2 CARD (1+2) (Q9HC29, residues 1-267): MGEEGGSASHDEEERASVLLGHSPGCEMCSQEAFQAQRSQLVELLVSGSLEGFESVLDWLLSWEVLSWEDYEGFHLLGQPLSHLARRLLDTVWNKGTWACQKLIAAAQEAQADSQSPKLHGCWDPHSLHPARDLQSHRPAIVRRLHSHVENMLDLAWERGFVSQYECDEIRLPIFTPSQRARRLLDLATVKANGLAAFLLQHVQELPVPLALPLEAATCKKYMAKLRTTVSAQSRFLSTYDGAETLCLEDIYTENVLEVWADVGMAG
NOD2 CARD (1) (Q9HC29, residues 1-116): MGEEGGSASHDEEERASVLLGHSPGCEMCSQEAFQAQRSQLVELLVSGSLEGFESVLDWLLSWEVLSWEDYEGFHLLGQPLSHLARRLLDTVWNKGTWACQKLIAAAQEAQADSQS
NOD2 CARD (2) (Q9HC29, residues 135-255): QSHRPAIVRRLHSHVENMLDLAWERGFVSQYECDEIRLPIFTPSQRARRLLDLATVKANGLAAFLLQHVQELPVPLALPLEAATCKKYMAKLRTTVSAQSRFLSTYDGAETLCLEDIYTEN
NOD2 CARD (1+2) E69K (Q9HC29, form named): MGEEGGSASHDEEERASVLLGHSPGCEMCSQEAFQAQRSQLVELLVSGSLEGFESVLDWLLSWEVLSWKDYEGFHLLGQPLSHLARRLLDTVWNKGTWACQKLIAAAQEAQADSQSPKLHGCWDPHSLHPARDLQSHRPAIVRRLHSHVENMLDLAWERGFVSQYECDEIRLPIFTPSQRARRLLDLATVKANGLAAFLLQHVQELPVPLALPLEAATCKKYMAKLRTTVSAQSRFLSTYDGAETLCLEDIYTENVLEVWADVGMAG
NOD2 CARD (1+2) R132Q (Q9HC29, form named): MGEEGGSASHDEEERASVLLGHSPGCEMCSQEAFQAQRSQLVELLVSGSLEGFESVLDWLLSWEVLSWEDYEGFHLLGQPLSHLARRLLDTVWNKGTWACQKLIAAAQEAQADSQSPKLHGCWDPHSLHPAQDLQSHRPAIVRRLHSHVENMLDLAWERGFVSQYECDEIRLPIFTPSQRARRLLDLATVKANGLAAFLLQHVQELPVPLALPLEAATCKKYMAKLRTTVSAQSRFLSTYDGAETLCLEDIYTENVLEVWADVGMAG
NOD2 CARD (1+2) D70K (Q9HC29, form named): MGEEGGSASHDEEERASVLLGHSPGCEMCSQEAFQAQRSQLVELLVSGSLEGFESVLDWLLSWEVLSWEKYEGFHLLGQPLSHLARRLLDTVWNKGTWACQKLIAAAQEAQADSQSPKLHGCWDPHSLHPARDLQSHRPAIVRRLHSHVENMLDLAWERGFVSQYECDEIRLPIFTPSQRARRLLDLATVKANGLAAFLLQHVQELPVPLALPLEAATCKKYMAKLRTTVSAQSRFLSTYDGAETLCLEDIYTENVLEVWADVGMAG
UniProt Q96P20, residues 1-189: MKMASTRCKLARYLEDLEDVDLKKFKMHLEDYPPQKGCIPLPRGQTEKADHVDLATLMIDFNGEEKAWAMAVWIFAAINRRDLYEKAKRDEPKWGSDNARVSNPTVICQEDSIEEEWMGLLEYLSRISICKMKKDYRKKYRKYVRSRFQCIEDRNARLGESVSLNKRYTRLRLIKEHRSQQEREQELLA
UniProt Q9ULZ3: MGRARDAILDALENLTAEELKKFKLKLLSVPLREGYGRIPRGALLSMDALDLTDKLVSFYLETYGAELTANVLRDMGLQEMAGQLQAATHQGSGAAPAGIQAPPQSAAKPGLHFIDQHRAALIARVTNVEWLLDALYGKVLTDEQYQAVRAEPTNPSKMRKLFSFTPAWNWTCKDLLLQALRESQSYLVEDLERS

For assay [2], the target named is T2, NLRC4 CARD (UniProt Q9NPP4).
T2 sequence: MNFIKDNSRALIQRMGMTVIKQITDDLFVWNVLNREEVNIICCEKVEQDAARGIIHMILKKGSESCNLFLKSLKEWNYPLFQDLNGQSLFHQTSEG

The target in assay [3] is T3, NLRP1 CARD (UniProt Q9C000).
T3 sequence: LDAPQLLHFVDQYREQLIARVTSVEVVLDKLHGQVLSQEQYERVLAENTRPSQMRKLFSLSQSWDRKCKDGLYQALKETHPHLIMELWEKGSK

The target in a further assay is T4, NLRP12 PYD (UniProt P59046).
T4 sequence: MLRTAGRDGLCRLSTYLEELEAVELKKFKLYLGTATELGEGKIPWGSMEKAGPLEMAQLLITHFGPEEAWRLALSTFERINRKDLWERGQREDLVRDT

The next assay deals with T5, NLRP1 PYD (UniProt Q9C000).
T5 sequence: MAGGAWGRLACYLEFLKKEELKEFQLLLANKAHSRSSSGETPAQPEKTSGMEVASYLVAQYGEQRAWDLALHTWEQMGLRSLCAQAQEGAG

The target in assay [4] is T3, NLRP1 CARD. The source holds these as a separate data set.
For assay [5], the target named is T1, NOD1 CARD (1–110). This is another data set of the same source.
The target in a further assay is T6, NOD1 CARD (16–108) (UniProt Q9Y239).
T6 sequence: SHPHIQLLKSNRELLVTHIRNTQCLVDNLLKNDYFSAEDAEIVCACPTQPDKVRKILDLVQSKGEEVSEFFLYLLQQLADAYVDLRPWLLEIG

In assay [6] the target is T2, NLRC4 CARD. The source holds these as a separate data set.
The target in assay [7] is NOD2 CARD (1+2) E69K (human) (UniProt Q9HC29).
Assay [8] has as its target NOD2 CARD (1+2) R132Q (human) (UniProt Q9HC29).
Assay [9] concerns the target NOD2 CARD (1+2) D70K (human) (UniProt Q9HC29).

Like-named read-outs stand apart in the source and are kept apart here. These are yes or no findings as the source states them, for the method shown. Some entries that bind do so weakly or less than the wild type.

In paper PMC2660581 one finds binding data, which are given here for twelve molecules.

Regarding “NLRP3 PYD+linker (from UniProt Q96P20 1-189) (domain or fragment)”, the binding result with NOD1 CARD (1–110) [1] and with NLRC4 CARD [2] was “no binding” in each case.

Consider “ASC CARD (from UniProt Q9ULZ3 105-195) (domain or fragment)”, for which the binding entry in the assay with NLRP1 CARD [3] was “no binding”; with NLRP12 PYD, “no binding”; with NLRC4 CARD [2], “binds”; with NLRP1 PYD, “no binding”.

In the case of “ASC full length (from UniProt Q9ULZ3 1-195)”, the binding entry with NLRP1 CARD [3], in the assay with NLRP12 PYD and with NLRP1 PYD was “no binding” throughout.

B1: NLRP7, PYD+linker (domain or fragment, UniProt Q8WX94 1-185)
chain: MTSPQLEWTLQTLLEQLNEDELKSFKSLLWAFPLEDVLQKTPWSEVEEADGKKLAEILVNTSSENWIRNATVNILEEMNLTELCKMAKAEMMEDGQVQEIDNPELGDAEEDSELAKPGEKEGWRNSMEKQSLVWKNTFWQGDIDNFHDDVTLRNQRFIPFLNPRTPRKLTPYTVVLHGPAGVGKT
Turning to B1, the binding result with NOD2 CARD (1+2) (human) is reported as “no binding”.

B2: NLRP1 CARD (domain or fragment, UniProt Q9C000 1373-1465)
chain: LDAPQLLHFVDQYREQLIARVTSVEVVLDKLHGQVLSQEQYERVLAENTRPSQMRKLFSLSQSWDRKCKDGLYQALKETHPHLIMELWEKGSK
Take B2: the binding entry in the assay with NLRP1 CARD [4], with NOD1 CARD (1–110) [5], with NOD1 CARD (16–108) and in the assay with NLRC4 CARD [6] was “no binding” each time.

B3: NLRP11, PYD+linker (domain or fragment, UniProt P59045 1-160)
chain: MAESDSTDFDLLWYLENLSDKEFQSFKKYLARKILDFKLPQFPLIQMTKEELANVLPISYEGQYIWNMLFSIFSMMRKEDLCRKIIGRRNRNQEACKAVMRRKFMLQWESHTFGKFHYKFFRDVSSDVFYILQLAYDSTSYYSANNLNVFLMGERASGKT
In the case of B3, the binding entry with NOD2 CARD (1+2) (human) is given as “no binding”.

B4: NLRP2, PYD+linker (domain or fragment, UniProt Q9NX02 1-220)
chain: MVSSAQMGFNLQALLEQLSQDELSKFKYLITTFSLAHELQKIPHKEVDKADGKQLVEILTTHCDSYWVEMASLQVFEKMHRMDLSERAKDEVREAALKSFNKRKPLSLGITRKERPPLDVDEMLERFKTEAQAFTETKGNVICLGKEVFKGKKPDKDNRCRYILKTKFREMWKSWPGDSKEVQVMAERYKMLIPFSNPRVLPGPFSYTVVLYGPAGLGKT
For the molecule B4, the binding result in the assay with NOD2 CARD (1+2) (human) is “no binding”.

B5: NLRP10, PYD+linker (domain or fragment, UniProt Q86W26 1-180)
chain: MAMAKARKPREALLWALSDLEENDFKKLKFYLRDMTLSEGQPPLARGELEGLIPVDLAELLISKYGEKEAVKVVLKGLKVMNLLELVDQLSHICLHDYREVYREHVRCLEEWQEAGVNGRYNQVLLVAKPSSESPESLACPFPEQELESVTVEALFDSGEKPSLAPSLVVLQGSAGTGKT
As to B5, in the assay with NOD2 CARD (1+2) (human), the binding entry was “no binding”.

B6: NOD1 CARD (1–110) (domain or fragment, UniProt Q9Y239 1-110)
chain: MEEQGHSEMEIIPSESHPHIQLLKSNRELLVTHIRNTQCLVDNLLKNDYFSAEDAEIVCACPTQPDKVRKILDLVQSKGEEVSEFFLYLLQQLADAYVDLRPWLLEIGFS
With B6, in the assay with NOD1 CARD (1–110) [5], the binding result was “no binding”.

B7: NOD1 CARD (16–108) (domain or fragment, UniProt Q9Y239 16-108)
chain: SHPHIQLLKSNRELLVTHIRNTQCLVDNLLKNDYFSAEDAEIVCACPTQPDKVRKILDLVQSKGEEVSEFFLYLLQQLADAYVDLRPWLLEIG
As for B7, the binding entry in the assay with NOD1 CARD (1–110) [5] and in the assay with NOD1 CARD (16–108) was “no binding” each time.

B8: NLRC4 CARD (domain or fragment, UniProt Q9NPP4 1-96)
chain: MNFIKDNSRALIQRMGMTVIKQITDDLFVWNVLNREEVNIICCEKVEQDAARGIIHMILKKGSESCNLFLKSLKEWNYPLFQDLNGQSLFHQTSEG
In the case of B8, the binding result with NOD2 CARD (1+2) (human), with NOD2 CARD (2) (human), with NOD2 CARD (1) (human), with NOD1 CARD (1–110) [5], in the assay with NOD1 CARD (16–108) and in the assay with NLRC4 CARD [6] was “no binding” in each case.

B9: NLRP12, PYD+linker (domain or fragment, UniProt P59046 1-224)
chain: MLRTAGRDGLCRLSTYLEELEAVELKKFKLYLGTATELGEGKIPWGSMEKAGPLEMAQLLITHFGPEEAWRLALSTFERINRKDLWERGQREDLVRDTPPGGPSSLGNQSTCLLEVSLVTPRKDPQETYRDYVRRKFRLMEDRNARLGECVNLSHRYTRLLLVKEHSNPMQVQQQLLDTGRGHARTVGHQASPIKIETLFEPDEERPEPPRTVVMQGAAGIGKS
In the case of B9, the binding result was “binds” in the assay with NOD2 CARD (1+2) (human); “binds” in assay [7]; “binds” in assay [8]; “no binding” in the assay with NOD2 CARD (2) (human); “no binding” with NOD2 CARD (1) (human); “no binding” in the assay with NOD1 CARD (1–110) [5]. Moreover, the binding result in assay [9] is “no binding”.
